Primary screen of a compound library

By UniProt entry, the sequences of proteins in these tests, tags left out. Residues count along the entry.
UniProt P9WNZ1, whole entry: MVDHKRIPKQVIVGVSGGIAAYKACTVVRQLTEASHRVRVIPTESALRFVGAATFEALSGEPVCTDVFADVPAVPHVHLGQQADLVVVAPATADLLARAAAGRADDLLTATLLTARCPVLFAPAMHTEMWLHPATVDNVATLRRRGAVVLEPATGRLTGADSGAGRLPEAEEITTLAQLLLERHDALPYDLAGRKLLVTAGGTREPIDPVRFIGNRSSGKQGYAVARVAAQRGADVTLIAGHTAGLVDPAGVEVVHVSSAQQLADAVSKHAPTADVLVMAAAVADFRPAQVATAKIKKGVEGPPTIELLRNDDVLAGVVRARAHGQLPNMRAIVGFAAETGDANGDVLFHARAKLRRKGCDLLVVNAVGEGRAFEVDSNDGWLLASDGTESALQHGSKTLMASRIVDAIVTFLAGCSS
UniProt Q8IDJ8, 1-583: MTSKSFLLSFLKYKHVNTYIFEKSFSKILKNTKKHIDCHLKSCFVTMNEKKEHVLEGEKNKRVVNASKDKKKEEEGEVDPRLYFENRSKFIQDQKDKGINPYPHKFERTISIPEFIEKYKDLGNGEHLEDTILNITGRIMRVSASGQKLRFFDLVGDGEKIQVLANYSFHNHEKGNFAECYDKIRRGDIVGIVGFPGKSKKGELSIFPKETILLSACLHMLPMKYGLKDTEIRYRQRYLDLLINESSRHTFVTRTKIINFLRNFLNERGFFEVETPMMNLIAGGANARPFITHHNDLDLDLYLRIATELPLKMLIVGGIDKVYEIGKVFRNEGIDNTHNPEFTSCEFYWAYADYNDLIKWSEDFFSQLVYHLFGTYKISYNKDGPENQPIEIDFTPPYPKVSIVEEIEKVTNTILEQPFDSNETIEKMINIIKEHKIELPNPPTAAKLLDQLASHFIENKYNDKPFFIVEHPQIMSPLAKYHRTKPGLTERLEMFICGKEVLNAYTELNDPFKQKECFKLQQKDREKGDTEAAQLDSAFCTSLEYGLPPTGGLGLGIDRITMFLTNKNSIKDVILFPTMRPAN
UniProt A4I591, 1-473: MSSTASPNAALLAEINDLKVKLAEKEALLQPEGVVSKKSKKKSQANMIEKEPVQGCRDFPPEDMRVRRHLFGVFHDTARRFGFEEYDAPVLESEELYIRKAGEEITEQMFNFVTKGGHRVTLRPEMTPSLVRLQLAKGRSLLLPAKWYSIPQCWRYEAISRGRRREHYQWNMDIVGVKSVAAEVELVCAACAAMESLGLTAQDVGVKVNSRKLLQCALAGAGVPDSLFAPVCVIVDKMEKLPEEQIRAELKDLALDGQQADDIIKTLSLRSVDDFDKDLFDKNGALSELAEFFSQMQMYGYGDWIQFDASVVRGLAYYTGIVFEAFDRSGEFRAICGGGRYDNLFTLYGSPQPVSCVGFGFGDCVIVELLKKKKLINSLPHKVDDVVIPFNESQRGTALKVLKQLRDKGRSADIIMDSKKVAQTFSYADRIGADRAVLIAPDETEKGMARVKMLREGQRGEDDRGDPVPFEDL

Source: ChEMBL document CHEMBL3988442, “University of Dundee, Small-Polar-MMV Screening Library” (2021).

CoaBC: 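Coenzyme A biosynthesis protein CoaBC, Mycobacterium tuberculosis (UniProt P9WNZ1). Enzyme assay of CoaBC with a phosphate dye (Biomol Green) read at 650 nm. Concentration: 30 µM. Direction is inferred from only a few compounds that gave an IC50; most scored high, so higher reads as stronger inhibition. Most strong results did not repeat in a second test. Of about 67,000 compounds tested this way, about 40 (0.06%) reached 50% or more in at least one test.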
PfKRS1: 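Lysine-tRNA ligase, Plasmodium falciparum 3D7 (UniProt Q8IDJ8). Enzyme assay of the cytosolic lysyl-tRNA synthetase in 384-well plates, read by luminescence. Concentration: 30 µM. Direction is inferred from only a few compounds that gave an IC50; most scored high, so higher reads as stronger inhibition. Size under these conditions: about 69,000 compounds, about 49 of them at 50% or above in at least one test.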
LiHisRS: 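Histidine-tRNA ligase, Leishmania infantum (UniProt A4I591). Enzyme assay of histidyl-tRNA synthetase; the read-out is not stated. Compounds at 30 µM. The record gives no direction; compounds that gave an IC50 in retests scored well above the rest, so higher reads as stronger inhibition. The assay is labelled LdHisRS but filed under L. infantum. Size under these conditions: about 69,000 compounds, about 410 of them at 50% or above in at least one test.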

Results are given as percent effect. The controls that fix the scale are not given in the record; negative values are as filed. Compounds were drawn at random from those tested, without regard to their results.

{"structure": "CN(C)C(=O)CNC(=O)Nc1cccc(Cl)c1SC(F)F", "CoaBC": -3.376, "PfKRS1": 2.849, "LiHisRS": -0.9615}
{"structure": "Cc1ccc(CNc2ccc(C(=O)N3CCNC(=O)C3)cn2)cc1", "CoaBC": -1.789, "PfKRS1": 1.913, "LiHisRS": 15.97}
{"structure": "CN1CCN(CC2CC2)C(=O)C12CCN(C(=O)c1ccnnc1)CC2", "CoaBC": -1.057, "PfKRS1": 1.067, "LiHisRS": 7.018}
{"structure": "CCN(Cc1cc(Cl)ccc1OC)Cc1cc(C)nn1C", "CoaBC": -2.258, "PfKRS1": -1.055, "LiHisRS": 1.316}
{"structure": "Cc1cnc(C(=O)N2CCC3(CCCN(c4nncs4)C3)C2)cn1", "stereo": "stereo unspecified", "CoaBC": -1.97, "PfKRS1": 4.15, "LiHisRS": 20}
{"structure": "Cn1c(=O)c2sccc2n(CC(=O)Nc2cccc(Cl)c2)c1=O", "CoaBC": -3.158, "PfKRS1": -7.633, "LiHisRS": 11.03}
{"structure": "CCC(CO)NC(=O)Nc1ccc(OCC(F)(F)F)c(C)c1", "stereo": "stereo unspecified", "CoaBC": -1.24, "PfKRS1": 3.179, "LiHisRS": 2.667}
{"structure": "CC(=O)NC1CCCN(c2ccc(C#N)cc2C(F)(F)F)C1", "stereo": "stereo unspecified", "CoaBC": 10.43, "PfKRS1": -1.888, "LiHisRS": 8.901}
{"structure": "CC(C)CN1CCN(C(=O)c2cc(=O)c3ccccc3[nH]2)CC1", "CoaBC": -4.421, "PfKRS1": 2.414, "LiHisRS": 18.87}
{"structure": "COc1ccccc1C1=NOC(CC2(C(=O)NC(C)C)CCOCC2)C1", "stereo": "stereo unspecified", "CoaBC": 5.353, "PfKRS1": -0.8065, "LiHisRS": 22.11}
{"structure": "Cc1cnc(CNc2ccccc2CN(C)C(=O)c2cccs2)o1", "CoaBC": 4.156, "PfKRS1": 1.534, "LiHisRS": 5.479}
{"structure": "Cc1cc(CN2CCOC(CN(C)c3cccnn3)C2)no1", "stereo": "stereo unspecified", "CoaBC": 7.692, "PfKRS1": -4.043, "LiHisRS": 5.333}
{"structure": "OC(CNCCn1cccn1)c1ccc(C(F)(F)F)cc1", "stereo": "stereo unspecified", "CoaBC": 1.044, "PfKRS1": -0.2079, "LiHisRS": 6.897}
{"structure": "Cn1ccc(C(=O)NCc2ccc(CN3CCCCC3)cc2)cc1=O", "CoaBC": 0.2389, "PfKRS1": -0.4426, "LiHisRS": 21.15}
{"structure": "O=C(NC1CCCC1)N1CCC2(CC1)CC(Oc1cccnc1)CO2", "stereo": "stereo unspecified", "CoaBC": -1.911, "PfKRS1": -1.307, "LiHisRS": -23.89}
{"structure": "CN(C)C(=O)CN1CCn2cc(Cn3cccn3)nc2C1", "CoaBC": 5.514, "PfKRS1": 0.08476, "LiHisRS": 2.564}
{"structure": "CC1Cc2ccccc2N1Cc1occc1C(=O)O", "stereo": "stereo unspecified", "CoaBC": 2.303, "PfKRS1": 3.987, "LiHisRS": 9.677}
{"structure": "Cn1c(C(=O)NS(C)(=O)=O)ccc1-c1ccccc1", "CoaBC": 2.016, "PfKRS1": 6.894, "LiHisRS": 10.53}
{"structure": "O=C(N[C@@H]1CCC[C@@H](n2ccnc2)[C@@H]1O)c1ccc2c(c1)CCCC2", "CoaBC": 3.148, "PfKRS1": 0.9047, "LiHisRS": 24.74}
{"structure": "Cc1nc(NC(C)C)nc2c1CN(Cc1nccn1C)CC2", "CoaBC": -39.14, "PfKRS1": 15.83, "LiHisRS": 24}
{"structure": "Cc1noc(C)c1CN1CCC2(CC1)C(c1cnn(C)c1)CC(=O)N2C", "stereo": "stereo unspecified", "CoaBC": 3.457, "PfKRS1": 6.25, "LiHisRS": 17.27}
{"structure": "CNC(=O)N1CCC2(CC1)CN(C(C)C)Cc1cc(F)ccc12", "PfKRS1": 2.934, "LiHisRS": 22.22}
{"structure": "O=C([C@H]1CC[C@@H]2[C@@H](CCN2c2ncccn2)O1)N1CCCCO1", "CoaBC": 1.707, "PfKRS1": 4.155, "LiHisRS": 15.09}
{"structure": "C[C@@]1(O)CCN(C2CCOCC2)C[C@H]1n1ccc(=O)[nH]c1=O", "CoaBC": 0, "PfKRS1": 0.1423, "LiHisRS": 5.797}
{"structure": "Cc1nc(C2CCCN2C(=O)Cn2cncn2)no1", "stereo": "stereo unspecified", "CoaBC": 2.389, "PfKRS1": -1.355, "LiHisRS": 11.54}
{"structure": "CCN(CCNS(=O)(=O)N1CCOCC1)C(=O)OC(C)(C)C", "CoaBC": 2.893, "PfKRS1": 0.7169, "LiHisRS": -1.77}
{"structure": "Cc1cc(C)cc(N(C)S(=O)(=O)c2cc(C(=O)O)cs2)c1", "CoaBC": 3.677, "PfKRS1": 8.067, "LiHisRS": 21.43}
{"structure": "O=C(CCc1cc2n(n1)CCCN(C(=O)c1cccnc1)C2)NC1CC1", "CoaBC": 1.266, "PfKRS1": 7.587, "LiHisRS": 18.27}
{"structure": "Cc1ccc(C2CSCCN2C(=O)c2cnsn2)o1", "stereo": "stereo unspecified", "CoaBC": 5.724, "PfKRS1": 2.958, "LiHisRS": 6.452}
{"structure": "Cc1nc(-c2ccccc2)sc1CNC(=O)c1ccc(=O)n(C)c1", "CoaBC": 1.456, "PfKRS1": 2.187, "LiHisRS": 43.37}
{"structure": "CNS(=O)(=O)c1ccc(C(=O)N2CCCC2c2ccccc2)o1", "stereo": "stereo unspecified", "CoaBC": 8.18, "PfKRS1": -2.609, "LiHisRS": 13.64}
{"structure": "O=C(CN1CCc2cncnc2C1)NCCOc1cccc(Cl)c1", "CoaBC": 0.6519, "PfKRS1": 3.532, "LiHisRS": 18.42}
{"structure": "O=C(c1cccnc1OCC(F)(F)F)N1CCCn2ncnc21", "CoaBC": 0, "PfKRS1": -0.07468, "LiHisRS": 7.937}
{"structure": "CCN1CCC(NC(=O)CN2CCCCC2Cn2cccn2)CC1", "stereo": "stereo unspecified", "CoaBC": -0.489, "PfKRS1": 3.983, "LiHisRS": 11.29}